Molecular target: T1, Aromatase enzyme (CYP19) (Homo sapiens, UniProt P11511)
T1 construct: purchased BD Biosciences, San Jose, CA
T1 sequence (P11511 1-503): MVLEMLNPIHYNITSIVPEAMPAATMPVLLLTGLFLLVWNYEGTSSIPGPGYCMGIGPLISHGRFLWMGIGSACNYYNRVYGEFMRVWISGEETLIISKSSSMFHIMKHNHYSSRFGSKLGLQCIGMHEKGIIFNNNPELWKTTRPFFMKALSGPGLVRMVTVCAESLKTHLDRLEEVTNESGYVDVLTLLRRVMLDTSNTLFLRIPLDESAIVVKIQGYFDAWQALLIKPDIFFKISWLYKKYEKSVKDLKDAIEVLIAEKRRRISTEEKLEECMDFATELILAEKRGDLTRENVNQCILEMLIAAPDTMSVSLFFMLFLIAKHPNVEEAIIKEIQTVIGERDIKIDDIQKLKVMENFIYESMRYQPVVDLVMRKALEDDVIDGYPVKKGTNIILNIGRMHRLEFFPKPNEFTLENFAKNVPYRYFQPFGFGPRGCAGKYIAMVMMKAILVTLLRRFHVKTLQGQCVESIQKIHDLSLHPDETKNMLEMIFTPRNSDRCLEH
Assay: In vitro aromatase inhibition assay (dibenzylfluorescein)
Assay type: biochemical
Conditions: ± SD

IC50: 761 nM
SMILES: O=c1c(O)c(-c2ccc(O)c(O)c2)oc2cc(O)cc(O)c12 [C2, 5,7,3′,4′-tetrahydroxy flavonol]
